Molecular target: human orexin-1 receptor (Homo sapiens (Human), UniProt O43613)
Assay: In vitro assay: intracellular calcium measurements (FLIPR), antagonistic activity
Format: cell-based
Settings: CHO cells expressing human orexin-1 receptor, orexin-A agonist, geometric mean, read-out: IC50 Ox1
Description: In Vitro Assay: Intracellular Calcium Measurements:
Chinese hamster ovary (CHO) cells expressing the human orexin-1 receptor and the human orexin-2 receptor, respectively, are grown in culture medium (Ham F-12 with L-Glutamine) containing 300 μg/ml G418, 100 U/ml penicillin, 100 μg/ml streptomycin and 10% heat inactivated fetal calf serum (FCS). The cells are seeded at 20,000 cells/well into 384-well black clear bottom sterile plates (Greiner). The seeded plates are incubated overnight at 37° C. in 5% CO2.
Human orexin-A as an agonist is prepared as 1 mM stock solution in MeOH: water (1:1), diluted in HBSS containing 0.1% bovine serum albumin (BSA), NaHCO3: 0.375 g/l and 20 mM HEPES for use in the assay at a final concentration of 3 nM. […]
Within the Fluorescent Imaging Plate Reader (FLIPR Tetra, Molecular Devices), antagonists are added to the plate in a volume of 10 μl/well, incubated for 120 min and finally 10 μl/well of agonist is added. Fluorescence is measured for each well at 1 second intervals, and the height of each fluorescence peak is compared to the height of the fluorescence peak induced by an approximate EC70 (for example 5 nM) of orexin-A with vehicle in place of antagonist. […] The calculated IC50 values may fluctuate depending on the daily cellular assay performance. […]

Chains of the proteins cited; added tags and fusions are not shown.
UniProt O43613, whole entry: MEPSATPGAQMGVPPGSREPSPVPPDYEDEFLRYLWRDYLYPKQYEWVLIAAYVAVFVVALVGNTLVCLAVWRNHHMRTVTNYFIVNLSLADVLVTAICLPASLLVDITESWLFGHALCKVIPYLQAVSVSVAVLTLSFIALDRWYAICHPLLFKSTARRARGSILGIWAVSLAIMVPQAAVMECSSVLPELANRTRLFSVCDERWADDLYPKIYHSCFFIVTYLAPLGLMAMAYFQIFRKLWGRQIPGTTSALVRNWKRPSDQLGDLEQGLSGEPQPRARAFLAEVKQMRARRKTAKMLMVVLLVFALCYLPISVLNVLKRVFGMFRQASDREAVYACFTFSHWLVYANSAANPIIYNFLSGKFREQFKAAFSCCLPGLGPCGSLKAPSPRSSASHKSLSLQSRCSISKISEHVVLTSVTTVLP

- IC50: 6 nM
SMILES: Cc1c(Br)cc2[nH]c([C@]3(C)CCCN3C(=O)c3c(F)cccc3-n3nccn3)nc2c1C [Ex. 5.268]

— patent publication US9732075B2, “Benzimidazole-proline derivatives” (IDORSIA PHARMACEUTICALS LTD, priority 2012, dated 2017)
